Measured data: PubChem BioAssay AID504744 (Drosophila RNAi Screening Center, 2011)

- Test: 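Identify dsRNAs that increase or decrease phospho-dAkt after insulin treatment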 (primary screen)
- Cells: Drosophila Kc167 cells
- Knock-down reagent: long dsRNA against Drosophila genes, 250 ng dsRNA per well of a 384-well plate
- Timing: 3 days of knock-down, then overnight serum-free starvation before stimulation
- Treatment: bovine insulin at 387 nM for 10 minutes after 12 h without serum
- Measurement: 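In-cell antibody fluorescence for phospho-dAkt in each well over DNA-dye signal, with log2 residuals expressed as z-scores adjusted for cell count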
- Hit rule: 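Hit in the insulin screen when the two-replicate mean z-score is more extreme than plus or minus 2.5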
In all, the deposit lists about 23,000 reagents; below is an unselected part of those with a known target gene and a result. Over the whole deposit, 98 (0.43%) were called active. 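Only hit calls are given; the phospho-dAkt signals, z-scores and hit direction were not deposited.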 A plus sign joins genes that one reagent is predicted to hit.

no.	gene	amplicon	activity call
1	sens	DRSC09263	inactive
2	Set	DRSC16861	inactive
3	Ire1	DRSC15606	inactive
4	B-H2	DRSC19335	inactive
5	a10	DRSC11319	inactive
6	unc-5	DRSC05545	inactive
7	unc-5	DRSC07711	inactive
8	unc-5	DRSC07712	inactive
9	C3G	DRSC17745	inactive
10	C3G	DRSC17929	inactive
11	C3G	DRSC22329	inactive
12	CG32511 (retired record)	DRSC20697	inactive
13	CG15208	DRSC19654	inactive
14	CG10175	DRSC13628	inactive
15	CG10175	DRSC14200	inactive
16	CG10175	DRSC21981	inactive
17	CG18662	DRSC02691	inactive
18	CG33268	DRSC10143	inactive
19	COX6AL	DRSC21454	inactive
20	CG5715	DRSC15860	inactive
21	Gp93	DRSC15827	inactive
22	CG13473	DRSC10017	inactive
23	PMP34	DRSC21939	inactive
24	CG13841	DRSC14691	inactive
25	CG31050	DRSC13883	inactive
26	Mal-A3	DRSC07462	inactive
27	CR18275 + CR18166 + CG32817	DRSC17249	inactive
28	CG31437	DRSC13711	inactive
29	Cpr47Eb	DRSC06345	inactive
30	CG34430	DRSC06499	inactive
31	Srpk79D	DRSC11668	inactive
32	Srpk79D	DRSC11856	inactive
33	CG15919	DRSC06594	inactive
34	CG12523	DRSC09895	inactive
35	CCDC53	DRSC03056	inactive
36	CG43773	DRSC00287	inactive
37	CG43773	DRSC00288	inactive
38	Pfdn1	DRSC02325	inactive
39	Hexo2	DRSC18671	inactive
40	CG31550	DRSC12197	inactive
41	CG31550	DRSC12198	inactive
42	CG6567 + CG4565	DRSC15599	inactive
43	CG34193	DRSC05665	inactive
44	Ir68a	DRSC10599	inactive
45	Or22a	DRSC00764	inactive
46	CNT1	DRSC06082	inactive
47	CG14323	DRSC14802	inactive
48	Lkr	DRSC09754	inactive
49	Acp95EF	DRSC14102	inactive
50	Hsdl2	DRSC15839	inactive
51	CG15578	DRSC18066	inactive
52	CG15445	DRSC20517	inactive
53	Acp53C14b	DRSC06569	inactive
54	Rpt1	DRSC07542	inactive
55	Gr2a	DRSC18603	inactive
56	kz	DRSC18786	inactive
57	CG8303	DRSC07140	inactive
58	lgs	DRSC17152	inactive
59	Ac3	DRSC03692	inactive
60	Cpr76Bb	DRSC11061	inactive
61	Cpr76Bb	DRSC22870	inactive
62	snz	DRSC17969	inactive
63	CG7222	DRSC07019	inactive
64	FarO	DRSC18475	inactive
65	Dcps	DRSC12299	inactive
66	CG11626	DRSC14336	inactive
67	CG11426	DRSC11658	inactive
68	CG14147	DRSC10149	inactive
69	Npc1b	DRSC20488	inactive
70	boi	DRSC18425	inactive
71	boi	DRSC18598	inactive
72	CG43078	DRSC10292	inactive
73	CG43078	DRSC10608	inactive
74	CG43078	DRSC21541	inactive
75	CG43078	DRSC22327	inactive
76	NijB	DRSC09850	inactive
77	Galphai	DRSC11168	inactive
78	Uba3	DRSC06377	inactive
79	Dnali1	DRSC16158	inactive
80	Roc2	DRSC07313	inactive
81	CG17266	DRSC04979	inactive
82	CG17266	DRSC22368	inactive
83	CG3649	DRSC04400	inactive
84	CG30099	DRSC07039	inactive
85	Krn	DRSC11202	inactive
86	CG3045	DRSC04331	inactive
87	Alp12	DRSC02515	inactive
88	CG11141	DRSC06048	inactive
89	CG18748	DRSC15385	inactive
90	rept	DRSC11388	inactive
91	CG8520	DRSC07206	inactive
92	CG4586	DRSC18373	inactive
93	Droj2	DRSC16450	inactive
94	ine	DRSC00822	inactive
95	aop	DRSC00801	inactive
96	Ndf	DRSC02775	inactive
97	scf	DRSC08735	inactive

In a second layout: 29 of the entries above.
gene | amplicon | activity call
Npc1b | DRSC20488 | inactive
boi | DRSC18425 | inactive
boi | DRSC18598 | inactive
CG43078 | DRSC10292 | inactive
CG43078 | DRSC10608 | inactive
CG43078 | DRSC21541 | inactive
CG43078 | DRSC22327 | inactive
NijB | DRSC09850 | inactive
Galphai | DRSC11168 | inactive
Uba3 | DRSC06377 | inactive
Dnali1 | DRSC16158 | inactive
Roc2 | DRSC07313 | inactive
CG17266 | DRSC04979 | inactive
CG17266 | DRSC22368 | inactive
CG3649 | DRSC04400 | inactive
CG30099 | DRSC07039 | inactive
Krn | DRSC11202 | inactive
CG3045 | DRSC04331 | inactive
Alp12 | DRSC02515 | inactive
CG11141 | DRSC06048 | inactive
CG18748 | DRSC15385 | inactive
rept | DRSC11388 | inactive
CG8520 | DRSC07206 | inactive
CG4586 | DRSC18373 | inactive
Droj2 | DRSC16450 | inactive
ine | DRSC00822 | inactive
aop | DRSC00801 | inactive
Ndf | DRSC02775 | inactive
scf | DRSC08735 | inactive

The results go on:
no.	gene	amplicon	activity call
98	Cpr65Az	DRSC09882	inactive
99	Cpr65Az	DRSC22057	inactive
100	Cbp80	DRSC18450	inactive
101	Tsen54	DRSC10527	inactive
102	Rpn13	DRSC06379	inactive
103	Dredd	DRSC18461	inactive
104	Flad1	DRSC19898	inactive
105	kumpel	DRSC14883	inactive
106	kumpel	DRSC16459	inactive
107	kumpel	DRSC16460	inactive
108	kumpel	DRSC16461	inactive
109	kumpel	DRSC16462	inactive
110	kumpel	DRSC16463	inactive
111	CG17290	DRSC06662	inactive
112	CG9581	DRSC20695	inactive
113	CG9581	DRSC22247	inactive
114	CG31142	DRSC13647	inactive
115	myd	DRSC14762	inactive
116	myd	DRSC15512	inactive
117	Mgat4a	DRSC09326	inactive
118	Mgat4a	DRSC11070	inactive
119	Cyp6a9	DRSC07385	inactive
120	CG17726	DRSC15255	inactive
121	RIOK2	DRSC14413	inactive
122	CG10621	DRSC02078	inactive
123	CG15772	DRSC18078	inactive
124	CG12728	DRSC17883	inactive
125	Or59c	DRSC04633	inactive
126	CG3793	DRSC01982	inactive
127	CG14302	DRSC14781	inactive
128	CNPYb	DRSC09845	inactive
129	Gk2	DRSC08610	inactive
130	CG11247	DRSC11643	inactive
131	CG11247	DRSC21901	inactive
132	CG3748	DRSC02716	inactive
133	CG31370	DRSC21453	inactive
134	CG43707	DRSC00280	inactive
135	CG43707	DRSC22869	inactive
136	CG13801	DRSC08335	inactive
137	CG14000 + bchs	DRSC02333	inactive
138	spel1	DRSC03617	inactive
139	ScsbetaA	DRSC14446	inactive
140	mRpL44	DRSC12306	inactive
141	CG9471	DRSC16499	inactive
142	Asx	DRSC05924	inactive
143	CG2694	DRSC18470	inactive
144	GstZ1	DRSC16478	inactive
145	CG34029	DRSC03909	inactive
146	CG12477	DRSC09886	inactive
147	CG5984	DRSC15930	inactive
148	Srg3	DRSC08984	inactive
149	Srg3	DRSC10178	inactive
150	CG31068	DRSC13820	inactive
151	Jon99Fii + Jon99Cii + Jon99Ciii + 1 more	DRSC15298	inactive
152	Cht4	DRSC04603	inactive
153	CG31952	DRSC00428	inactive
154	CG31952	DRSC21997	inactive
155	Graf	DRSC20131	inactive
156	CG30177	DRSC22680	inactive
157	Drl-2	DRSC05393	inactive
158	Drl-2	DRSC06155	inactive
159	Drl-2	DRSC06858	inactive
160	CG11788	DRSC06084	inactive
161	CG11444	DRSC17784	inactive
162	bsf	DRSC02035	inactive
163	Fit1	DRSC08450	inactive
164	CG32679	DRSC17644	inactive
165	peb	DRSC18817	inactive
166	TAF1B	DRSC16001	inactive
167	CG3792	DRSC02725	inactive
168	5-HT2B	DRSC16360	inactive
169	5-HT2B	DRSC16362	inactive
170	ltl	DRSC10206	inactive
171	ltl	DRSC10870	inactive
172	Ppt1	DRSC17806	inactive
173	JTBR	DRSC08667	inactive
174	PIP4K	DRSC17213	inactive
175	CG4213	DRSC00641	inactive
176	Pstk + CG14210 + Tim9b	DRSC19566	inactive
177	Mnt	DRSC17894	inactive
178	Mnt	DRSC18480	inactive
179	CG12395	DRSC19453	inactive
180	yellow-g	DRSC08575	inactive
181	sca	DRSC07677	inactive
182	CG33255 (retired record) + hpRNA:CR32205 + hpRNA:CR32207	DRSC09617	inactive
183	Spc25	DRSC14164	inactive
184	E(spl)m4-BFM	DRSC16992	inactive
185	CG30197	DRSC22394	inactive
186	jp	DRSC02213	inactive
187	jp	DRSC02744	inactive
188	Ca-alpha1D	DRSC03284	inactive
189	S	DRSC00785	inactive
190	grsm	DRSC14165	inactive
191	grsm	DRSC14843	inactive
192	Or98P	DRSC22948	inactive
193	CG9919	DRSC20219	inactive
194	BomS6	DRSC21676	inactive
195	CR12628 + Mgstl	DRSC03702	inactive
196	CR12628 + Mgstl	DRSC20568	inactive
197	CG42586 + CG31775	DRSC01413	inactive
198	CG40282 (retired record)	DRSC07814	inactive
199	CG15820	DRSC08480	inactive
200	CG15577	DRSC18065	inactive
